Primary screen of a compound library

The values are deposited in ChEMBL (CHEMBL3988442, “University of Dundee, Small-Polar-MMV Screening Library” (2021)).

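Viability assay of Plasmodium falciparum sporozoites; the read-out is not stated. The concentration is filed as 10 mM, unlikely as a test dose, so the dose is not known. Direction is inferred from retests: higher values go with lower viability. Strong results were mostly tested again. Of about 34,000 compounds tested this way, about 280 (0.84%) reached 50% or more in at least one test.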

Results are given as percent effect.
The record does not define 0% and 100%; most values in the screen are far below 50% and negative numbers occur (in some assays of this library far below -100).
This is an unselected part of the compounds tested.
Two or more numbers in one place are separate tests of the same structure; such repeats can differ widely.

compound	Percent Effect
CSCc1cccc(S(=O)(=O)N2CCC(C)CC2)c1	1.316%
[H][C@@]12C[C@H](C(=O)NCC3CC3)[C@@]([H])(CN(C(=O)NCc3ccccc3)C1)O2	-1.946%
CC(C)(N)CN1CCC(c2nnc(CN3CCCC3)n2C2CC2)CC1	0.4292%
Cc1noc(CN2CCN(Cc3cccs3)CC2)n1	-6.378%
CCc1nc(C2CCCN2Cc2cc(=O)n(C)c(=O)n2C)no1 (configuration not stated)	8.807%
CC(C)CCC(C)NC(=O)CN1C=Nc2ccccc2S1(=O)=O (configuration not stated)	-4.578%
CCc1cnc(CN(C(C)=O)C2CCN(CCc3cccs3)C2)o1 (configuration not stated)	-2.363%
Cc1noc(C(C)C)c1C(=O)NCc1ccc(N(C)C)c(F)c1	5.205%
CN(C)C(C(=O)NCC(F)(F)F)c1cccc(F)c1 (configuration not stated)	-7.982%
CCC(NC(=O)C1CCN(C(=O)C2CC2)CC1)c1cn2cccnc2n1 (configuration not stated)	8.772%
Cn1nc2c(cc1=O)CN(Cc1nc(-c3cccs3)no1)CC2	-16.18%
COCCN(Cc1cccnc1)S(=O)(=O)c1ccc(F)cc1C	6.127%
Cc1nc2n(n1)CC(NCCC(=O)Nc1cc(C)on1)CC2 (configuration not stated)	4.77%
CC(C)c1nn(C)c(N(C)C)c1CNCCC(=O)N(C)C.Cl	-0.4075%
Cn1cc(-c2cnc(-c3ccnn3C)nc2)cc1C(=O)NC1CC1	0.6932%
CC(C)OCCCNC(=O)CS(=O)(=O)Cc1ccc(Cl)cc1	-1.943%
CCc1nccn1C1CCCN(C(=O)c2cnc3onc(C)c3c2)C1 (configuration not stated)	-4.013%
CCCN1CCCn2nc(CNS(=O)(=O)c3cccc(C#N)c3)cc2C1	5.509%
CCNc1cc2c(nn1)CCN(C(=O)c1ccoc1)C2	-0.9184%
O=C(NC1CC1)N1CCn2c(Cn3cccn3)cnc2C1.O=C(O)C(F)(F)F	10.27%
[H][C@]12C[C@H](C(=O)NCC3CC3)N(C)[C@@]1([H])CN(Cc1ccc(C)o1)C2	-7.581%
O=C(O)C(F)(F)F.O=C(O)C(F)(F)F.O=C(O)C(F)(F)F.c1ccc(CN2CCc3c(COCC4CC4)cncc3C2)nc1	1.444%
C[C@@H]1CN(Cc2ccccn2)C[C@]12CCN(Cc1cccnc1)C2=O.O=C(O)C(F)(F)F.O=C(O)C(F)(F)F.O=C(O)C(F)(F)F	-3.791%
CN1C(=N)NC(=O)/C1=C\c1ccc(-c2ccc(F)cc2)o1	8.992%
CC(c1ccco1)N(C)Cc1cc2cc3c(cc2[nH]c1=O)OCO3 (configuration not stated)	-17.56% & -24.13% & -15.85%
O=C(NCc1ccccn1)c1cnc(C2CCCN2)cn1 (configuration not stated)	-5.932%
CCc1nnc(Nc2cccc(C3CCN(C(=O)CNC)CC3)n2)s1	1.108%
CCOCc1nn(CC2CC2)c2c1CN(Cc1ccco1)CC2.O=C(O)C(F)(F)F	4.962%
COCCO[C@@H]1CCN(Cc2csc(C)n2)[C@H]1Cc1ccccc1.O=C(O)C(F)(F)F	21.68%
Cc1ccc(OCC(=O)NCC(C)C)nc1	-9.822%
CC(=O)N1CC(=O)N(c2ccccc2)CC12CCN(Cc1cccs1)C2.O=C(O)C(F)(F)F (configuration not stated)	-10.06%
CCc1n[nH]c(C2CN(C(=O)c3nc(C)ncc3Cl)CCO2)n1 (configuration not stated)	0.7111%
COc1ccccc1N1CCC(CNCc2cccc(OC)c2OC)C1 (configuration not stated)	7.36%
CCn1cnnc1C1CCN(C(=O)c2ccoc2C)CC1	-10.54%
COc1ccc(CNC(=O)CCSCc2csc(C)n2)cn1	-1.366%
CCOCc1nccc(-c2ccc(OCC)c(C(=O)O)c2)n1	-10.25%
Cc1ccsc1-c1nnc(C2CCN(Cc3ccc(F)cc3)CC2)o1	1.303%
COCCCNC(=O)N1CCN(C(=O)c2nsc3ccc(C)cc23)CC1	-6.812%
Cn1cc(CN2CCC(c3ncc(Cl)cc3S(C)(=O)=O)CC2)cn1	2.246%
CCc1ccc(C(=O)O)cc1S(=O)(=O)Nc1ccc(F)c(C#N)c1	9.76%
O=C(c1ccncn1)N1CCC[C@]2(C[C@@H](OCC3CC3)CO2)C1	-1.632%
CC(C)c1cc(C(=O)N2CCCC(c3cc(=O)nc4n3CCC4)C2)no1 (configuration not stated)	10.15%
CNc1ncccc1CN1CCN(C)CC(C(=O)N(C)C)C1 (configuration not stated)	15.8%
CCc1noc(C(C)N2CCN(c3ccc(C#N)cc3F)CC2)n1 (configuration not stated)	-2.593%
O=C(O)C(F)(F)F.O=C(O)C(F)(F)F.O=C(O)c1c(-c2cccnc2)ncc2c1CCN(Cc1ccccn1)C2	-3.406%
CCOCCn1nc(C)cc1C(=O)N1C[C@@H](C)[C@](O)(C2CC2)C1	-3.421%
Cc1cc(C)c(CNC(=O)NCc2ccncc2)c(=O)[nH]1	9.123%
O=C(O)c1c(-c2ccncc2)ncc2c1CCN(Cc1ccco1)C2	6.932%
O=C(Cc1cccs1)N1Cc2nc(COCC3CC3)oc2C1	1.751%
CC(CCc1cccn1C)NC(=O)Nc1cccn(C)c1=O (configuration not stated)	-9.111%
Cc1ccc(C)c(C(NC(=O)C2CC2)c2cccnc2)c1 (configuration not stated)	-8.38%
Cc1ccc(N2CC[C@H](OCC3CC3)[C@@H]2Cc2cccnc2)nn1.O=C(O)C(F)(F)F	11.73%
[H][C@@]12OCCN(C(=O)c3occc3C)[C@@]1([H])CC[C@H]2OCC1CCOCC1	-16.13%
CC(C)NC1CCCc2nc(-c3ccccc3)ncc21 (configuration not stated)	-17.37%
Cl.Cl.[H][C@@]12CN(CCc3ccccc3)C[C@]1([H])C2CN (some centres not stated)	5.489%
Cc1cc(C(=O)NCCn2nc3ccccn3c2=O)[nH]n1	10.63%
CCc1nc(CNc2ccc(F)cc2I)no1	-16.3%
CS(=O)(=O)N1CCN(Cc2csc(-c3ncccn3)n2)CC1	17.33% & 6.127% & -13.49%
O=C(O)C(F)(F)F.O=C(O)C(F)(F)F.[H][C@@]12CCC(=O)N(c3cnn(C)c3)[C@]1([H])CCN2Cc1cccc(C#N)c1	18.55%
O=C(O)C(F)(F)F.O=C(O)C(F)(F)F.[H][C@]12C[C@@H](C(=O)N(C)Cc3ccccn3)CO[C@@]1([H])CCN(C)C2	13.84%
Cl.Cn1ccnc1CNC(=O)c1cncc(C2CCNCC2)n1	10.01%
O=C(Cc1csc(-c2cccc(Cl)c2)n1)NCc1cccc(C(=O)O)c1	8.15%
CC(C)NC(=O)C1(Cc2ccccc2-c2ccccc2)CCCNC1 (configuration not stated)	3.529%
Cc1ccc2nc(CN(C)Cc3ccc(C)o3)cc(=O)n2c1	-4.107%
CC(=O)N1CCC(Cc2ccc(-c3ccnn3C)nc2)CC1	-5.711%
Cc1ccc(C(O)CN2CCN(Cc3nccn3C)CC2)cc1C (configuration not stated)	1.122%
CN1CCOC(C)(C(=O)N2CCSCC2)C1 (configuration not stated)	2.96%
Cc1cn2c(=O)c(-c3ccnc(N[C@@H](C)CO)n3)cnc2s1	0.5927%
O=C(O)C(F)(F)F.O=C(c1ccco1)N1CC2(CCNCC2)c2cc(Cl)ccc21	0.1805%
CC(NC(=O)c1cccs1)C(=O)NCc1ccccc1CN1CCCC1 (configuration not stated)	-1.472%
CC(NC(=O)NCC1(c2ccc(F)cc2)CCCC1)c1nncn1C (configuration not stated)	-1.347%
CCOc1cc(C(=O)N2CCCC(c3noc(C)n3)C2)ccc1OC (configuration not stated)	1.692%
CCN1CCN(C(=O)c2nc(C)n(-c3ccccc3Cl)n2)CC1	15.4%
Fc1cccc(OC2CCN(CCn3cc4ccccc4n3)CC2)c1	7.699%
COc1ncc(C2CC(=O)NCc3nc4ccccn4c32)cn1 (configuration not stated)	-0.7277%
CC(C)n1cc(S(=O)(=O)N2CCCCCC2)cn1	-20.43% & -23.34%
Cc1cnn(CC2CN(Cc3csc(C(C)C)n3)CCO2)c1 (configuration not stated)	12.07%
O=C(Cc1noc2ccccc12)N1CCC(Nc2cccnn2)CC1	10.62%
Cl.[H][C@@]12C[C@@H](C(=O)NC(C)C)O[C@]1([H])CCN2	5.429%
c1csc(-c2nc(CNC3CCc4ncnn4C3)co2)c1 (configuration not stated)	-8.831%
COc1ccc(C2=C(C)C(N3CCc4ccccc43)=NS2(=O)=O)cc1	4.134%
Cc1nn(C)c(C)c1C1SCC(=O)Nc2c1c(O)nn2C(C)C (configuration not stated)	16.26%
COc1cccc2c1ccn2CCC(=O)NCCCC(=O)O	-32.68%

Some entries from above, unchanged:

compound	Percent Effect
Cn1cc(CN2CCC(c3ncc(Cl)cc3S(C)(=O)=O)CC2)cn1	2.246%
Fc1cccc(OC2CCN(CCn3cc4ccccc4n3)CC2)c1	7.699%
O=C(Cc1noc2ccccc12)N1CCC(Nc2cccnn2)CC1	10.62%
Cc1noc(C(C)C)c1C(=O)NCc1ccc(N(C)C)c(F)c1	5.205%